PubChem BioAssay AID1259254 – NCATS – 2017

Assay: 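Genome-wide screen for genes that prevent DNA re-replication in cancer cells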 (primary screen)
System: human HCT116 colorectal cancer cells
Reagents: single siRNA against human genes
Timing: 3 days
Measured: 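Imaged Hoechst DNA stain sorts each cell into a cycle phase by DNA amount; per plate, G2 fraction set to 0% for non-targeting and 100% for GMNN siRNA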
Direction: G2 robust z-score: higher = more G2 cells, more excess DNA replication
Hit rule: 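Active siRNAs have a G2 robust z of 5 or more median absolute deviations over the median, which in these data means about 38% or higher of GMNN control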
Here is a random part of about 59,000 reagents tested. Of all reagents, about 1,550 (2.6%) are marked active. 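G2 share is only a proxy for re-replication; each gene was hit by three separate siRNAs, and active genes were retested.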 Unmarked entries are inactive. The numbers tell different reagents against one gene apart. Not all columns of the deposit are shown. Not given: the amount of reagent.

TSHZ3 (teashirt zinc finger homeobox 3) #1 gave G2 robust z-score 0.102.
TSHZ3 (teashirt zinc finger homeobox 3) #2 scored G2 robust z-score 0.872.
For TSHZ3 (teashirt zinc finger homeobox 3) #3 the deposit lists G2 robust z-score 1.14.
For STX2 (syntaxin 2) #1, the entry reads G2 robust z-score 1.03.
STX2 (syntaxin 2) #2 gave G2 robust z-score -1.11.
Against STX2 (syntaxin 2) #3, the values are G2 robust z-score -0.202.
With knock-down of C1QB (complement C1q B chain) #1, the screen gave G2 robust z-score 0.736.
Against C1QB (complement C1q B chain) #2, the entry reads G2 robust z-score -1.09.
Against C1QB (complement C1q B chain) #3, the values are G2 robust z-score 3.24.

No new results follow: an excerpt of the list.
TSHZ3 (teashirt zinc finger homeobox 3) #2 | G2 robust z-score = 0.872
TSHZ3 (teashirt zinc finger homeobox 3) #3 | G2 robust z-score = 1.14
STX2 (syntaxin 2) #1 | G2 robust z-score = 1.03
STX2 (syntaxin 2) #2 | G2 robust z-score = -1.11

The results go on:
Knock-down of KIAA0319 #1 came out at: G2 robust z-score 5.52 (active).
With knock-down of KIAA0319 #2, the screen gave G2 robust z-score 1.27.
KIAA0319 #3 gave G2 robust z-score -0.559.
With knock-down of MAFA (MAF bZIP transcription factor A) #1, the screen gave G2 robust z-score -0.26.
MAFA (MAF bZIP transcription factor A) #2 scored G2 robust z-score 1.44.
MAFA (MAF bZIP transcription factor A) #3 scored G2 robust z-score -0.21.
Against DSCAML1 (DS cell adhesion molecule like 1) #1, the entry reads G2 robust z-score 1.3.
Depletion of DSCAML1 (DS cell adhesion molecule like 1) #2 resulted in: G2 robust z-score 5.16 (active).
Depletion of DSCAML1 (DS cell adhesion molecule like 1) #3 gave: G2 robust z-score 0.533.
Knock-down of ANGPTL7 (angiopoietin like 7) #1 came out at: G2 robust z-score -0.126.
Against ANGPTL7 (angiopoietin like 7) #2, the entry reads G2 robust z-score -0.808.
ANGPTL7 (angiopoietin like 7) #3 scored G2 robust z-score -0.0876.
CAMTA2 (calmodulin binding transcription activator 2) #1 scored G2 robust z-score 0.561.
CAMTA2 (calmodulin binding transcription activator 2) #2 showed G2 robust z-score 1.29.
With knock-down of CAMTA2 (calmodulin binding transcription activator 2) #3 the results were G2 robust z-score 5.28 (active).
